PubChem BioAssay AID1671195 | Yale University – 2021

Screen: 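Regulators of LDL receptor activity judged by labelled LDL uptake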 (primary screen)
Cell system: human Huh7 hepatoma cells
Reagent: siRNA pool against human genes, 18 nM
Time to read-out: about 2 to 2.5 days of knockdown, then 8 h LDL uptake
Treatment: DiI-labelled LDL at 30 µg/ml for 8 h, in lipoprotein-deficient serum medium
Read-out: 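Fluorescent LDL signal imaged in cells, scaled to the plate median, robust z-score for each replicate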
Scale: robust z-score: higher = more LDL uptake after knockdown
Call rule: 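Active when two or more replicates show a robust z-score above 2 or below -2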
Here is one part, drawn at random, of about 22,000 reagents tested. Of all reagents, about 1,510 (6.9%) were called active. 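Active includes knockdowns raising or lowering LDL uptake; positive z-scores mean more uptake, negative mean less.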

gene,"robust z-score, replicate 1","robust z-score, replicate 2","robust z-score, replicate 3",outcome
HSPH1,0.717,1,0.67,inactive
H2AC4,2.38,-0.501,-0.0869,inactive
TGFB1I1,-1.08,-1.33,-1.15,inactive
FOXP4,0.212,0.455,0.923,inactive
LOC400953 (retired record),-0.708,-0.621,-0.937,inactive
HELQ,0.331,1.36,0.502,inactive
HELT,1.6,1.09,1.42,inactive
SEPTIN8,-0.412,-1.44,-1.18,inactive
COL19A1,-1.57,-2.02,-2.27,active
LAMP5,1.76,1.77,2.17,inactive
PTPN11,0.606,0.117,-0.0408,inactive
EYA4,0.0815,0.261,0.372,inactive
PROC,-1.05,-0.894,-0.747,inactive
SPAG8,-0.481,-1.74,1.75,inactive
GLA,-0.139,-0.296,-0.317,inactive
CLIC4,0.275,0.612,1.09,inactive
IP6K3,0.267,-0.0201,0.239,inactive
LOC440497 (retired record),1.41,1.7,1.11,inactive
ETS1,0.405,-0.345,2,inactive
SEPTIN7P11,0.81,0.914,1.14,inactive
KIF2C,0.0711,1.03,-0.0421,inactive
EFCC1,-1.24,0.243,-0.122,inactive

Reformatted: results already given
gene	robust z-score, replicate 1	robust z-score, replicate 2	robust z-score, replicate 3	outcome
PROC	-1.05	-0.894	-0.747	inactive
SPAG8	-0.481	-1.74	1.75	inactive
GLA	-0.139	-0.296	-0.317	inactive
CLIC4	0.275	0.612	1.09	inactive
IP6K3	0.267	-0.0201	0.239	inactive
LOC440497 (retired record)	1.41	1.7	1.11	inactive
ETS1	0.405	-0.345	2	inactive

The listing continues.
gene,"robust z-score, replicate 1","robust z-score, replicate 2","robust z-score, replicate 3",outcome
LOC389345 (retired record),1.74,1.71,1.79,inactive
OTULIN,-0.0537,0.608,0.64,inactive
KIFBP,-1.41,-1.3,-1.01,inactive
WDR82,-1.72,-1.83,-2.13,inactive
SLC16A6,0.446,0.924,0.734,inactive
LRRC43,-0.662,-0.218,-0.0856,inactive
IMPG2,0.751,-1.22,1.18,inactive
NPHP4,-1.07,-1.06,-1.02,inactive
ACTG2,-1.09,-0.935,-0.482,inactive
KIAA1614,-0.405,-0.628,-1.58,inactive
STXBP1,0.963,2.59,3.35,active
LOC440147 (retired record),0.87,0.661,0.657,inactive
IGSF8,0.921,0.276,0.278,inactive
SRFBP1,0.549,0.594,0.941,inactive
CENPA,-0.682,-1.32,-1.11,inactive
LOC151451 (retired record),2.51,1.19,1.07,inactive
CDK15,0.116,0.0529,1.05,inactive
FAM87A,-0.381,-0.522,-0.668,inactive
PRB3,-1.28,0.946,-0.953,inactive
ATP1B4,2.53,2.08,1.81,active
SEC24C,-0.706,-0.987,-1.19,inactive
POM121,-1.18,0.0849,0.253,inactive
LOC440746 (retired record),-0.686,-0.476,-0.881,inactive
ACVR2A,2.77,2.12,2.34,active
LOC441364 (retired record),-0.297,-1.21,-0.941,inactive
HOXC6,-0.741,0.199,0.122,inactive
WNT16,0.435,3.05,1.92,inactive
DRG2,-1.5,-1.51,-1.31,inactive
ZNF501,-0.496,-0.732,-0.558,inactive
LOC401544 (retired record),1.45,-0.0129,1.34,inactive
SLC25A31,-1.72,-1.74,-1.61,inactive
IP6K2,2.73,0.0216,2.07,active
SNX2,-0.371,-0.714,-0.614,inactive
MMRN2,-0.627,-0.273,-0.646,inactive
PRKD3,-0.536,-0.767,-0.142,inactive
RASD1,2.37,1.19,3.37,active
KRTAP5-3,-1.32,-1.78,-1.67,inactive
HSPA4,0.837,1.09,0.74,inactive
C18orf54,2.43,1.6,1.29,inactive
PDE1B,0.254,-1.11,-0.695,inactive
CBLC,0.371,-0.903,-1.08,inactive
CCDC63,0.708,0.778,0.556,inactive
FOLH1,-0.222,0.324,-0.129,inactive
GCK,1.84,1.58,1.84,inactive
LOC440427 (retired record),0.215,-0.0618,1.22,inactive
MICA,-1.2,-0.996,-1.12,inactive
